Results reported in patent US20210315970A1, “Hepatitis A Virus Replication Inhibitor Targeting mTOR” (Tokyo Metropolitan Institute of Medical Science, priority 2020, published 2021).
For at least one compound, name, drawing or mass did not settle the structure.

Assays:
[1] = system: HAV expressing NanoLuc reporter (18f strain, HAV/NLuc); assay: HAV/NLuc reporter virus replication in HuH-7 cells (NanoLuc activity); format: cell-based, hepatitis A virus; conditions: HuH-7 cells infected with HAV/NLuc, drug given 1 hour after infection, 48 hours post-infection
Protocol: HuH-7 cells were infected with HAV/NLuc and drugs were given 1 hour after infection. 48 hours later, NanoLuc activities were measured to evaluate the virus replication levels. In addition, WST-8 reagent (Cell Counting Kit-8, Dojindo) was used to evaluate cell viability after the drug treatment.
pHM175/18f-NLuc plasmid was prepared by PCR amplification of the NLuc open reading frame using pNL1.1 plasmid (Promega) as a template and primers containing a triglycine sequence flanked by XbaI and BamHI restriction enzyme sites. This PCR product was digested with these enzymes and ligated into similarly digested pSK-2A-Zeo-2B plasmid^36 to give pSK-2A-NLuc-2B plasmid. This plasmid was further digested with SacI/PflMI to cleave out the entire 2A-NLuc-2B fragment, which was ligated into similarly digested HM175/18f parental plasmid^37 to give pHM175/18f-NLuc reporter virus.
(§1) GLuc analysis of HCV replication and dual luciferase assay for analyzing the transcriptional induction were carried out according to the previously described methods^31,32. NanoLuc activity was determined with Nano-Glo Luciferase Assay System (Promega) according to the manufacture's protocol. For virus replication assays, the medium was replaced with a drug-containing medium at 1 hour post inoculation.

HCV = HCV replication in Huh-7.5 cells; format: cell-based, hepatitis C virus
Protocol: (§2) High-titer HAV (HM175/18f strain) was mycoplasma-free and was prepared as previously described^34. HAV infection was performed at a multiplicity of infection (MOI) of 10. SeV (Cantell strain) was obtained from Charles River Laboratories, and was inoculated at 50 U ml^−1 unless otherwise indicated. Infection with HCV-carrying Gaussia luciferase (GLuc) reporter was performed as previously described^32. DENV serotype 2 (olSa-054 strain) and ZIKV (MR-766 and AB-59 strains) were propagated in Vero, C6/36 or Huh-7.5 cells and inoculated at MOI=1 as previously described^35.
as §1

DENV = DENV replication in Huh-7.5 cells; format: cell-based, dengue virus
Protocol: as §2
Plasmids encoding capsid and subgenomic RNA containing NS1-5 regions fused with a NanoLuc reporter flanked by 5′ and 3′ untranslated RNAs derived from DENV1 (D1/Hu/Saitama/NIID100/2014 strain) and DENV2-derived premembrane and envelope protein (olSa-054 strain) were transfected into HEK293T cells. Infectious virons secreted in the supernatant were harvested according to the previously described method^38.
Primer pair targeting DENV genomic RNA, 5′-[…]-3′ (SEQ ID NO:57) and 5′-CATCATTAAGTCGAGGGCC-3′ (SEQ ID NO:58), or primer pair targeting ZIKV genomic RNA, 5′-[…]-3′ (SEQ ID NO:59) and 5′[…]-3′ (SEQ ID NO:60) was used with RNA-direct SYBR Green Realtime PCR Master Mix (TOYOBO) to quantify DENV and ZIKV RNA abundance.

HAV = HAV replication in Huh-7.5 cells; format: cell-based, hepatitis A virus
Protocol: as §2
Total RNA extraction was performed using RNeasy Mini Kit (QIAGEN), QIAamp viral RNA Mini Kit (QIAGEN) or TRIzol (Thermo Fisher). HAV genomic RNA was detected by a two-step RT-qPCR analysis using SuperScript III First-Strand Synthesis System (Thermo Fisher Scientific) and iTaq Universal SYBR Green Supermix (Bio-Rad Laboratories), or Thunderbird SYBR qPCR Mix (TOYOBO). 5′-GGTAGGCTACGGGTGAAAC-3′ (SEQ ID NO:3) and 5′-[…]-3′ (SEQ ID NO:4) were used as HAV-specific primers

CO[C@H]1C[C@@H]2CC[C@@H](C)[C@@](O)(O2)C(=O)C(=O)N2CCCC[C@H]2C(=O)O[C@H]([C@H](C)C[C@@H]2CC[C@@H](O)[C@H](OC)C2)CC(=O)[C@H](C)/C=C(\C)[C@@H](O)[C@@H](OC)C(=O)[C@H](C)C[C@H](C)/C=C/C=C/C=C/1C [rapamycin]
viral replication level reduced to (NanoLuc activity) [1]: one-twentieth

N#CC[C@H](C1CCCC1)n1cc(-c2ncnc3[nH]ccc23)cn1 [ruxolitinib]
enhancement of HCV replication (HCV): not seen
enhancement of DENV replication (DENV): not seen
enhancement of HAV replication (HAV): not seen
